Measurements taken from article PMC5717197, “Mechanistic insight into TRIP13-catalyzed Mad2 structural transition and spindle checkpoint silencing” (Nature Communications, 2017).
No constants are given. Whether binding was seen depends on the method and setting. Some binding calls cover weakened binding; strength is not graded here. Where a sequence is shown, tags or fusion partners need not be part of it.

By UniProt entry, the sequences of proteins in these tests, tags left out. Where a name states a change or a piece, a line headed by the entry shows the natural chain unless it says otherwise.
UniProt Q13257, whole entry, looked up, stated change not applied: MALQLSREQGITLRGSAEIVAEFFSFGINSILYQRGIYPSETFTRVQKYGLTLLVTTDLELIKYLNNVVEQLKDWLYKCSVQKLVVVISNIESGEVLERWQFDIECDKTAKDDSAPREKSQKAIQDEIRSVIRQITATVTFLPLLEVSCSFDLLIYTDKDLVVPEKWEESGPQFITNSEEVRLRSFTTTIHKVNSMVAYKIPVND

Molecular target: T1, His6-ΔN35-p31^comet (co-expressed with Mad2^L13A) (human) (UniProt Q15013)
T1 sequence: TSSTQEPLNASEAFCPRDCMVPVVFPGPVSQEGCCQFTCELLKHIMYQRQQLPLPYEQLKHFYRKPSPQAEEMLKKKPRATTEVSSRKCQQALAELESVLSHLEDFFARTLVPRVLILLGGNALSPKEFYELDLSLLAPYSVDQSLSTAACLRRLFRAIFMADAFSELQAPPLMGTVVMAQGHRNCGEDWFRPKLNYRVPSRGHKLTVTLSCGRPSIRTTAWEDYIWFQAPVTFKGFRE
Assay: co-purification of co-expressed proteins; His6-ΔN35-p31comet and Mad2 L13A co-expressed in E. coli BL21 (DE3); Ni-NTA, TEV cleavage, Resource Q, Superdex 200 Increase

## Mad2^L13A (from UniProt Q13257 1-205)
  binding: binds
